The chains are these.
T1: TmcA-R457o-NBAK (E. coli) (UniProt P76562)
T1 sequence (chain, o-NBAK (o-nitrobenzyl alcohol-derived lysine) at 457): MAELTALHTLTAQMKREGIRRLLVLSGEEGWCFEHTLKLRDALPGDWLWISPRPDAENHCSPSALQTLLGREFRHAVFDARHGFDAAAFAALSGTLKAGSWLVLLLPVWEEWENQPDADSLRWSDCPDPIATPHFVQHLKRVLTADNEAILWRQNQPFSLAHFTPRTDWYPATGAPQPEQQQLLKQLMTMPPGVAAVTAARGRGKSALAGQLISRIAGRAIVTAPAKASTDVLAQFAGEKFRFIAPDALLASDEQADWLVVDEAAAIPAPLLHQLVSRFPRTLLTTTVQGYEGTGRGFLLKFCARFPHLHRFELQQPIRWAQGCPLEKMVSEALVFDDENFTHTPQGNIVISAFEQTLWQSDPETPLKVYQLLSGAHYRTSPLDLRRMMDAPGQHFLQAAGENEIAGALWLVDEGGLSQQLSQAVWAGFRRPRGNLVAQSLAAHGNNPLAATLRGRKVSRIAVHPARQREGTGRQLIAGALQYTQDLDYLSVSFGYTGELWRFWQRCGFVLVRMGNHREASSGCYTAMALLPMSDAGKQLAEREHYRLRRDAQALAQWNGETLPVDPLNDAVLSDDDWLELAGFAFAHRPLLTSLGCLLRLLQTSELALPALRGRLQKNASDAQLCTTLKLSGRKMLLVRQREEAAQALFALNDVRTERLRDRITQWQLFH

By UniProt entry, the sequences of proteins in these tests, tags left out.
UniProt P21889: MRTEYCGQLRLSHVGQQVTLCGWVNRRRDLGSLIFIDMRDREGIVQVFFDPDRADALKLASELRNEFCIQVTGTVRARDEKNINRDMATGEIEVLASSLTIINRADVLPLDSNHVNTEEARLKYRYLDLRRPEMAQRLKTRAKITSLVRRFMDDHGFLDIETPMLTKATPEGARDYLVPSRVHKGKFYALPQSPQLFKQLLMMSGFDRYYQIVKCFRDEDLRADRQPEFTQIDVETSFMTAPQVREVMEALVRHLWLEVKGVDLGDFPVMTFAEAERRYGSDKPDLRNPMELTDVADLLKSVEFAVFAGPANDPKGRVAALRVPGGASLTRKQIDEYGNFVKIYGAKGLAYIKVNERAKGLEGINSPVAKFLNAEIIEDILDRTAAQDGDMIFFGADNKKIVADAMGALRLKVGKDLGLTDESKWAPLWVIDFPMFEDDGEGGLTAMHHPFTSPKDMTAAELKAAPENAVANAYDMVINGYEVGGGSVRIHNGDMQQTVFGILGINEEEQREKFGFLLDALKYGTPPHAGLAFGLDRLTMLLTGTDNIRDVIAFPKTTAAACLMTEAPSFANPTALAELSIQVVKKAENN
UniProt P07813: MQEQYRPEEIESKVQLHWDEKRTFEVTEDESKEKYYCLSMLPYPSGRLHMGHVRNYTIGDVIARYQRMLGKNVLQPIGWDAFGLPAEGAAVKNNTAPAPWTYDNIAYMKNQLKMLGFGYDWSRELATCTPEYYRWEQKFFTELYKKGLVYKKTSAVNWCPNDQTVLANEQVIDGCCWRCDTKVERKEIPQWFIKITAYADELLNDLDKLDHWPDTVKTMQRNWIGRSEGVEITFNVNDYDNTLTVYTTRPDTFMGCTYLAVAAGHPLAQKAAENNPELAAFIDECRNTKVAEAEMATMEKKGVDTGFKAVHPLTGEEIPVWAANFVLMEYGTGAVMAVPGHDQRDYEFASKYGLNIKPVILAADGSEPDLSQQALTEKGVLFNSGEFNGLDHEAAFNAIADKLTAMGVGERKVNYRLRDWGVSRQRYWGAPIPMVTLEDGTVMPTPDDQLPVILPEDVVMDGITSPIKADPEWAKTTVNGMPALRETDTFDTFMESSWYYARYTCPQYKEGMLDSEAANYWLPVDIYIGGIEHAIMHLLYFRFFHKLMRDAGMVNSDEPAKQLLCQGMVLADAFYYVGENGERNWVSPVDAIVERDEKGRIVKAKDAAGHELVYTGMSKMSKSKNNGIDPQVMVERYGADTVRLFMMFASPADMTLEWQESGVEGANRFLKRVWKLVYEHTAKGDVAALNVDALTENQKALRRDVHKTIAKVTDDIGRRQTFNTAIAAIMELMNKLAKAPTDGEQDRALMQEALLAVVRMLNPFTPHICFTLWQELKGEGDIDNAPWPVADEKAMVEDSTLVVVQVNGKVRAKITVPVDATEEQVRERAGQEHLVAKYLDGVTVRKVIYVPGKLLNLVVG
UniProt P0AG30: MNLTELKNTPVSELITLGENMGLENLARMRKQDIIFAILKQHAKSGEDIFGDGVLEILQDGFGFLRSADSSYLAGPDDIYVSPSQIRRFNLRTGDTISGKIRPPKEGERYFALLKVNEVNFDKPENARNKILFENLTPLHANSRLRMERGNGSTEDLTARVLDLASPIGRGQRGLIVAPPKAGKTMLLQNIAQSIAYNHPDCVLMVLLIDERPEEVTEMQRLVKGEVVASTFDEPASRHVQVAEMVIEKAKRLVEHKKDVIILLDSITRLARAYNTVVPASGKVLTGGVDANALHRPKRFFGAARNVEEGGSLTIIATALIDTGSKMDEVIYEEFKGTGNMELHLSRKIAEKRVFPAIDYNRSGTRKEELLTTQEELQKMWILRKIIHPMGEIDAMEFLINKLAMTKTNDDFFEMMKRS
UniProt P0ACI0: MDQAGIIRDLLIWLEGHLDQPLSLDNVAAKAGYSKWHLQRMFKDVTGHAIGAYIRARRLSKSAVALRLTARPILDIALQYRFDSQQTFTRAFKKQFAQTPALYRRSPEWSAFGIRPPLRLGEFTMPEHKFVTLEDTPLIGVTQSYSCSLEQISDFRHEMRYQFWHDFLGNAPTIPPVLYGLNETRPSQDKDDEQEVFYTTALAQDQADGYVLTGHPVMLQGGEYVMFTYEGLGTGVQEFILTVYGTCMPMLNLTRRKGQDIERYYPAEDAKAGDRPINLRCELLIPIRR
UniProt P0A6P1: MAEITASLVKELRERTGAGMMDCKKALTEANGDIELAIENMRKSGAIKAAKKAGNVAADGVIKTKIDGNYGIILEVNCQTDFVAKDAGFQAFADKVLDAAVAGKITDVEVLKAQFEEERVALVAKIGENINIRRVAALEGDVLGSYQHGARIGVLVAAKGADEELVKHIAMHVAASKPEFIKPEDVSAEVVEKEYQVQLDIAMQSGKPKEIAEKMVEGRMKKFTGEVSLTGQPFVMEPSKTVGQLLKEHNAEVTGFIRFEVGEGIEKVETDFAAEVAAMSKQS

T2: YiaC-F75o-NBAK (E. coli) (UniProt P37664)
T2 sequence (chain, o-NBAK (o-nitrobenzyl alcohol-derived lysine) at 75): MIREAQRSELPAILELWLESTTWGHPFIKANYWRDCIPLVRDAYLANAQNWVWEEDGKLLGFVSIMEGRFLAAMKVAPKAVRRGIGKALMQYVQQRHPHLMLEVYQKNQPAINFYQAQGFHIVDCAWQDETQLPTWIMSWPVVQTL

T3: YjaB-F77o-NBAK (E. coli) (UniProt P09163)
T3 sequence (chain, o-NBAK (o-nitrobenzyl alcohol-derived lysine) at 77): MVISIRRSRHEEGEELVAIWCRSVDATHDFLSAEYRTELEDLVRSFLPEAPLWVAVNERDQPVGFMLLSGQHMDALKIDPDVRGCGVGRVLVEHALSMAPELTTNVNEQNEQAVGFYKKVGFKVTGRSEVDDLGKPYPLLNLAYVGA

B1: pepD (protein, UniProt P15288 1-485)
chain: MSELSQLSPQPLWDIFAKICSIPHPSYHEEQLAEYIVGWAKEKGFHVERDQVGNILIRKPATAGMENRKPVVLQAHLDMVPQKNNDTVHDFTKDPIQPYIDGEWVKARGTTLGADNGIGMASALAVLADENVVHGPLEVLLTMTEEAGMDGAFGLQGNWLQADILINTDSEEEGEIYMGCAGGIDFTSNLHLDREAVPAGFETFKLTLKGLKGGHSGGEIHVGLGNANKLLVRFLAGHAEELDLRLIDFNGGTLRNAIPREAFATIAVAADKVDVLKSLVNTYQEILKNELAEKEKNLALLLDSVANDKAALIAKSRDTFIRLLNATPNGVIRNSDVAKGVVETSLNVGVVTMTDNNVEIHCLIRSLIDSGKDYVVSMLDSLGKLAGAKTEAKGAYPGWQPDANSPVMHLVRETYQRLFNKTPNIQIIHAGLECGLFKKPYPEMDMVSIGPTITGPHSPDEQVHIESVGHYWTLLTELLKEIPAK
B2: hsdR (protein, UniProt P08956 1-1170)
chain: MMNKSNFEFLKGVNDFTYAIACAAENNYPDDPNTTLIKMRMFGEATAKHLGLLLNIPPCENQHDLLRELGKIAFVDDNILSVFHKLRRIGNQAVHEYHNDLNDAQMCLRLGFRLAVWYYRLVTKDYDFPVPVFVLPERGENLYHQEVLTLKQQLEQQVREKAQTQAEVEAQQQKLVALNGYIAILEGKQQETEAQTQARLAALEAQLAEKNAELAKQTEQERKAYHKEITDQAIKRTLNLSEEESRFLIDAQLRKAGWQADSKTLRFSKGARPEPGVNKAIAEWPTGKDETGNQGFADYVLFVGLKPIAVVEAKRNNIDVPARLNESYRYSKCFDNGFLRETLLEHYSPDEVHEAVPEYETSWQDTSGKQRFKIPFCYSTNGREYRATMKTKSGIWYRDVRDTRNMSKALPEWHRPEELLEMLGSEPQKQNQWFADNPGMSELGLRYYQEDAVRAVEKAIVKGQQEILLAMATGTGKTRTAIAMMFRLIQSQRFKRILFLVDRRSLGEQALGAFEDTRINGDTFNSIFDIKGLTDKFPEDSTKIHVATVQSLVKRTLQSDEPMPVARYDCIVVDEAHRGYILDKEQTEGELQFRSQLDYVSAYRRILDHFDAVKIALTATPALHTVQIFGEPVYRYTYRTAVIDGFLIDQDPPIQIITRNAQEGVYLSKGEQVERISPQGEVINDTLEDDQDFEVADFNRGLVIPAFNRAVCNELTNYLDPTGSQKTLVFCVTNAHADMVVEELRAAFKKKYPQLEHDAIIKITGDADKDARKVQTMITRFNKERLPNIVVTVDLLTTGVDIPSICNIVFLRKVRSRILYEQMKGRATRLCPEVNKTSFKIFDCVDIYSTLESVDTMRPVVVRPKVELQTLVNEITDSETYKITEADGRSFAEHSHEQLVAKLQRIIGLATFNRDRSETIDKQVRRLDELCQDAAGVNFNGFASRLREKGPHWSAEVFNKLPGFIARLEKLKTDINNLNDAPIFLDIDDEVVSVKSLYGDYDTPQDFLEAFDSLVQRSPNAQPALQAVINRPRDLTRKGLVELQEWFDRQHFEESSLRKAWKETRNEDIAARLIGHIRRAAVGDALKPFEERVDHALTRIKGENDWSSEQLSWLDRLAQALKEKVVLDDDVFKTGNFHRRGGKAMLQRTFDDNLDTLLGKFSDYIWDELA
B3: acnB (protein, UniProt P36683 1-865)
chain: MLEEYRKHVAERAAEGIAPKPLDANQMAALVELLKNPPAGEEEFLLDLLTNRVPPGVDEAAYVKAGFLAAIAKGEAKSPLLTPEKAIELLGTMQGGYNIHPLIDALDDAKLAPIAAKALSHTLLMFDNFYDVEEKAKAGNEYAKQVMQSWADAEWFLNRPALAEKLTVTVFKVTGETNTDDLSPAPDAWSRPDIPLHALAMLKNAREGIEPDQPGVVGPIKQIEALQQKGFPLAYVGDVVGTGSSRKSATNSVLWFMGDDIPHVPNKRGGGLCLGGKIAPIFFNTMEDAGALPIEVDVSNLNMGDVIDVYPYKGEVRNHETGELLATFELKTDVLIDEVRAGGRIPLIIGRGLTTKAREALGLPHSDVFRQAKDVAESDRGFSLAQKMVGRACGVKGIRPGAYCEPKMTSVGSQDTTGPMTRDELKDLACLGFSADLVMQSFCHTAAYPKPVDVNTHHTLPDFIMNRGGVSLRPGDGVIHSWLNRMLLPDTVGTGGDSHTRFPIGISFPAGSGLVAFAAATGVMPLDMPESVLVRFKGKMQPGITLRDLVHAIPLYAIKQGLLTVEKKGKKNIFSGRILEIEGLPDLKVEQAFELTDASAERSAAGCTIKLNKEPIIEYLNSNIVLLKWMIAEGYGDRRTLERRIQGMEKWLANPELLEADADAEYAAVIDIDLADIKEPILCAPNDPDDARPLSAVQGEKIDEVFIGSCMTNIGHFRAAGKLLDAHKGQLPTRLWVAPPTRMDAAQLTEEGYYSVFGKSGARIEIPGCSLCMGNQARVADGATVVSTSTRNFPNRLGTGANVFLASAELAAVAALIGKLPTPEEYQTYVAQVDKTAVDTYRYLNFNQLSQYTEKADGVIFQTAV
B4: gatD (protein, UniProt P0A9S3 1-346)
chain: MKSVVNDTDGIVRVAESVIPEIKHQDEVRVKIASSGLCGSDLPRIFKNGAHYYPITLGHEFSGYIDAVGSGVDDLHPGDAVACVPLLPCFTCPECLKGFYSQCAKYDFIGSRRDGGFAEYIVVKRKNVFALPTDMPIEDGAFIEPITVGLHAFHLAQGCENKNVIIIGAGTIGLLAIQCAVALGAKSVTAIDISSEKLALAKSFGAMQTFNSSEMSAPQMQSVLRELRFNQLILETAGVPQTVELAVEIAGPHAQLALVGTLHQDLHLTSATFGKILRKELTVIGSWMNYSSPWPGQEWETASRLLTERKLSLEPLIAHRGSFESFAQAVRDIARNAMPGKVLLIP
B5: MTOX (protein, UniProt P40874 1-372)
chain: MKYDLIIIGSGSVGAAAGYYATRAGLNVLMTDAHMPPHQHGSHHGDTRLIRHAYGEGEKYVPLVLRAQTLWDELSRHNEEDPIFVRSGVINLGPADSTFLANVAHSAEQWQLNVEKLDAQGIMARWPEIRVPDNYIGLFETDSGFLRSELAIKTWIQLAKEAGCAQLFNCPVTAIRHDDDGVTIETADGEYQAKKAIVCAGTWVKDLLPELPVQPVRKVFAWYQADGRYSVKNKFPAFTGELPNGDQYYGFPAENDALKIGKHNGGQVIHSADERVPFAEVASDGSEAFPFLRNVLPGIGCCLYGAACTYDNSPDEDFIIDTLPGHDNTLLITGLSGHGFKFASVLGEIAADFAQDKKSDFDLTPFRLSRFQ
B6: FolC (protein, UniProt P08192 1-422)
chain: MIIKRTPQAASPLASWLSYLENLHSKTIDLGLERVSLVAARLGVLKPAPFVFTVAGTNGKGTTCRTLESILMAAGYKVGVYSSPHLVRYTERVRVQGQELPESAHTASFAEIESARGDISLTYFEYGTLSALWLFKQAQLDVVILEVGLGGRLDATNIVDADVAVVTSIALDHTDWLGPDRESIGREKAGIFRSEKPAIVGEPEMPSTIADVAQEKGALLQRRGVEWNYSVTDHDWAFSDAHGTLENLPLPLVPQPNAATALAALRASGLEVSENAIRDGIASAILPGRFQIVSESPRVIFDVAHNPHAAEYLTGRMKALPKNGRVLAVIGMLHDKDIAGTLAWLKSVVDDWYCAPLEGPRGATAEQLLEHLGNGKSFDSVAQAWDAAMADAKAEDTVLVCGSFHTVAHVMEVIDARRSGGK
B7: FKBP-type 22 kDa peptidyl-prolyl cis-trans isomerase (FKBP22) (protein, UniProt P0A9L3 1-206)
chain: MTTPTFDTIEAQASYGIGLQVGQQLSESGLEGLLPEALVAGIADALEGKHPAVPVDVVHRALREIHERADAVRRQRFQAMAAEGVKYLEENAKKEGVNSTESGLQFRVINQGEGAIPARTDRVRVHYTGKLIDGTVFDSSVARGEPAEFPVNGVIPGWIEALTLMPVGSKWELTIPQELAYGERGAGASIPPFSTLVFEVELLEIL

We go through twelve molecules from PMC10874396, “Spatiotemporal and direct capturing global substrates of lysine-modifying enzymes in living cells” (Nature Communications, 2024).

No constants are given. Whether binding was seen depends on the method and setting. In cells and extracts the contact can be indirect. Some results given as binding are weak or reduced against the parent protein; the word gives no strength.

One assay addresses T1, TmcA-R457o-NBAK (E. coli). In words: cross-linking; crosslinked peptides/sites between the o-NBAK enzyme and substrate lysines identified by LC-MS/MS (MeroX) directly from cell lysate samples of in-cell crosslinked E. coli.
On to aspS (from UniProt P21889 1-590), for which the binding entry is “binds”. For leuS (from UniProt P07813 1-860), the binding result was “binds”. For the molecule B1, the binding entry is “binds”. For B2, the binding result was “binds”. Take B3: the binding entry is recorded as “binds”. Turning to B4, the binding result is listed as “binds”.

The next assay has as its target T1, TmcA-R457o-NBAK (E. coli). In words: cross-linking; photo-crosslinking in living E. coli BL21(DE3) cells expressing the o-NBAK enzyme (365 nm UV 20 min on ice, -UV as control); lysis, Ni-NTA enrichment, SDS-PAGE, bands above the free enzyme cut, LC-MS/MS with label-free quantification (+UV/-UV ratio >2, p < 0.05).
In the case of B5, the binding result is recorded as “binds”.

B6: the binding entry is “binds”.

The target of another assay is T2, YiaC-F75o-NBAK (E. coli). Described as above.
Turning to B7, the binding result is reported as “binds”.

The target in a further assay is T3, YjaB-F77o-NBAK (E. coli). The description is as above.
For Rho (from UniProt P0AG30 1-419), the binding entry was “binds”. Turning to Rob (from UniProt P0ACI0 1-289), the binding entry is recorded as “binds”. Consider EF-Ts (from UniProt P0A6P1 1-283), for which the binding result is “binds”.
